PMC4632068

T1: Dhh1−GFP (S. cerevisiae (endogenous in BY4741-derived yeast)) (UniProt P39517)
T1 sequence: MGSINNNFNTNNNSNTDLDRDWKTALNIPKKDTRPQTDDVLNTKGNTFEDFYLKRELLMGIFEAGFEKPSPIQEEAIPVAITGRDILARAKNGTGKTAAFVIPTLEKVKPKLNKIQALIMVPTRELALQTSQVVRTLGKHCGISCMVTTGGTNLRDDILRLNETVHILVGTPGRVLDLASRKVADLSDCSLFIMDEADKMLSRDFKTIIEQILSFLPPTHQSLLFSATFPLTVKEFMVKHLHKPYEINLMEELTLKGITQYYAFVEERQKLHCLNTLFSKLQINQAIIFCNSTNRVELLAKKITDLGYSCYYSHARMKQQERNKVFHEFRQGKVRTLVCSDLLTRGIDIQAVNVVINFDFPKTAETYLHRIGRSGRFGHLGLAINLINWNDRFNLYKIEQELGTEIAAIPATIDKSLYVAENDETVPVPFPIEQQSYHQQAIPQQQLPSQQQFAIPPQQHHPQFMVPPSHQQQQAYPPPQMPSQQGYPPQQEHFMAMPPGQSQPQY

B1: Tsa1 (protein, UniProt P34760 1-196)
chain: MVAQVQKQAPTFKKTAVVDGVFDEVSLDKYKGKYVVLAFIPLAFTFVCPTEIIAFSEAAKKFEEQGAQVLFASTDSEYSLLAWTNIPRKEGGLGPINIPLLADTNHSLSRDYGVLIEEEGVALRGLFIIDPKGVIRHITINDLPVGRNVDEALRLVEAFQWTDKNGTVLPCNWTPGAATIKPTVEDSKEYFEAANK
B2: Dps1 (protein, UniProt P04802 1-557)
chain: MSQDENIVKAVEESAEPAQVILGEDGKPLSKKALKKLQKEQEKQRKKEERALQLEAEREAREKKAAAEDTAKDNYGKLPLIQSRDSDRTGQKRVKFVDLDEAKDSDKEVLFRARVHNTRQQGATLAFLTLRQQASLIQGLVKANKEGTISKNMVKWAGSLNLESIVLVRGIVKKVDEPIKSATVQNLEIHITKIYTISETPEALPILLEDASRSEAEAEAAGLPVVNLDTRLDYRVIDLRTVTNQAIFRIQAGVCELFREYLATKKFTEVHTPKLLGAPSEGGSSVFEVTYFKGKAYLAQSPQFNKQQLIVADFERVYEIGPVFRAENSNTHRHMTEFTGLDMEMAFEEHYHEVLDTLSELFVFIFSELPKRFAHEIELVRKQYPVEEFKLPKDGKMVRLTYKEGIEMLRAAGKEIGDFEDLSTENEKFLGKLVRDKYDTDFYILDKFPLEIRPFYTMPDPANPKYSNSYDFFMRGEEILSGAQRIHDHALLQERMKAHGLSPEDPGLKDYCDGFSYGCPPHAGGGIGLERVVMFYLDLKNIRRASLFPRDPKRLRP
B3: Mes1 (protein, UniProt P00958 1-751)
chain: MSFLISFDKSKKHPAHLQLANNLKIALALEYASKNLKPEVDNDNAAMELRNTKEPFLLFDANAILRYVMDDFEGQTSDKYQFALASLQNLLYHKELPQQHVEVLTNKAIENYLVELKEPLTTTDLILFANVYALNSSLVHSKFPELPSKVHNAVALAKKHVPRDSSSFKNIGAVKIQADLTVKPKDSEILPKPNERNILITSALPYVNNVPHLGNIIGSVLSADIFARYCKGRNYNALFICGTDEYGTATETKALEEGVTPRQLCDKYHKIHSDVYKWFQIGFDYFGRTTTDKQTEIAQHIFTKLNSNGYLEEQSMKQLYCPVHNSYLADRYVEGECPKCHYDDARGDQCDKCGALLDPFELINPRCKLDDASPEPKYSDHIFLSLDKLESQISEWVEKASEEGNWSKNSKTITQSWLKDGLKPRCITRDLVWGTPVPLEKYKDKVLYVWFDATIGYVSITSNYTKEWKQWWNNPEHVSLYQFMGKDNVPFHTVVFPGSQLGTEENWTMLHHLNTTEYLQYENGKFSKSRGVGVFGNNAQDSGISPSVWRYYLASVRPESSDSHFSWDDFVARNNSELLANLGNFVNRLIKFVNAKYNGVVPKFDPKKVSNYDGLVKDINEILSNYVKEMELGHERRGLEIAMSLSARGNQFLQENKLDNTLFSQSPEKSDAVVAVGLNIIYAVSSIITPYMPEIGEKINKMLNAPALKIDDRFHLAILEGHNINKAEYLFQRIDEKKIDEWRAKYGGQQV
B4: Ask10 (protein, UniProt P48361 1-1146)
chain: MSDYFSSRPSQTLTPMGNKPSGGGGGDDASSIHSKSSQYLMDILPDSMTLNESVSSIVANNQAKEFILPETDERSPYFINVPIPKAQPTSTTETKKPLAGDEAIDGQFVKEYPTDILVDRFYKWKKILKGLVIYLREVAYAQEQFARINYQLKGSVKFPFLTDIDETTNTITDPFTTAPRGPKKAQPAQKKVGLTDSEQFQMQMQQEQQENAVQAPTDESKMSLAPHEYKPVQTTESDNTSAASGFVKFGSGSIQDIQVILKKYHLSLANQQFKISKEITSTVIPKLEELRKDLRYKITEIKDLHGDFKTNIGAHIQLTSQLLKKYIAAVKFMNAHGIGNDRASPTNKKPHKLDPKHDPYLLKLQLDLQLKRQVAEETYLQEAFINLQSSGLQLEKIIYTKIQHALLRYSALIDSEARLMIKNMCQELQHGIISKPPAFEWDNFVTQHPSCLLNWKSNDPIPPPRKVSDVIYPHMKSPLAKCIKAGYFLKKSELLPTYHQGYFVLTSNYIHEFQSSDFYNLSSSTPNSTKSSAYSSSVSIADTYANANNAKANNHHRQASDVHNSSTTTGGTAGANGIRGIRKKSYLAPIMSIPLNDCTLKDASSTKFVLVGKPTLNENADVRKSSSSTYLSGSSQASLPKYGHETAKIFSKAPFHKFLKGSKPKNKNTKSSELDQFYAAAQKESNNYVTWTFKIVSPEPSEEELKHFKRWVQDLKNLTSFNDTKDRIKFIEDRVMKSHRFKAGHMSRNSVNIGSHTPCLTDSTFTLQDGTTTSVNLKGRAEKPQYIHIQNNSLADFDGNGFRSKVNTPAIDDYGNLITVERRPAQSPHQYSDYMATSGNTTPSYSSGSRPQSMYNGYNPAVSITSNGMMLQQSTANNNTNPTTNLRHQRNISQTSSLPGFSYTSLSLPVNSPGSSNSESSSGGYFAIPLHGNNNNNNYTQRNSEGSSPCYNDDQIRQQQQPLQMQPLSRTSSSSVNVTAMRSTSAGNSITANAPVVPKVMVNNQNVKTVAADQSATAPSSPTMNSSVTTINRESPYQTLKKTNSTGNVPCLTAEKTHAHPAFYKRGNNSAQNLTTSSSTASRVHPIRKHKKNVSFSSLNSLMFSKKGANHGGNLMTNQFMSGGIQEDDGDSTNNDTIKLNQSIYS
B5: Pet130 (protein, UniProt P47065 1-347)
chain: MKIFSTLLSQKPKGKLVIRPSTTIHSSDPFSKFIVTKNTEPLSLGDLRKSDSGNSAVCLNAENTILSTLTDLQKEEERNWDPVKFVAGKLRGVISPIQAYVTIGKKFSPNSLVYTSRFFQLHYFPEDHFMSCFRKSKPAITVKSNKKFYLNGKVFNKDKEYFNETRISKANEVELSKIQTAMTRLTNRHRNSIPSEFAYLRRDLKLKVKTTFIKEWCKLNGDKAIREYVNLNRSPNINPASMKGKPKKSFLDNLGRSTVGTAKDGYYLYIVSIFPDKDMLGEFNDEVNRSVQKVANLDWDGFLTPKKGTKGKNWVESFNDSINVQTINKILEINKFPFELRREQTEG
B6: Rrg1 (protein, UniProt Q12167 1-365)
chain: MAQNFGKIPSHKSYVLSLYRTVLRNIPKCCHSYAFQYEIKKTLSIQLFKHKHDKSSWSVYTLLNEFSLLNNCLLEGKLQEIKNLMKPLKKMKKQLKTTKILNSLTSLGDVKTNDPEEVRRFHVLSAYIKRKQDLGLLPAYIPKTYQHKLLLPLALNEHACLKLFHIQQKLKNGPPSAGLSYTKEGRNQIWFVRSPINKGRQQSKKLGILIRKERKDSQKNIDNLNFCEINAAWALHEAIWEEYLESKKIIKVNLPKYLEYAANIPKSTKCNPSSQYQKVKEWVDPVREIMFELHSKSFQRVEYFNKYKEKLLKNGGQLAYFDKKSKEMYAKRLTLFRKMSKETLPYVTLFIEGRDLPSVLAKYGF
B7: Nop2 (protein, UniProt P40991 1-618)
chain: MGSRRHKNKQAAPPTLEEFQARKEKKANRKLEKGKRPSTTQGDEVSDRKKKKSKPFKKSRKEEEEVVEEDKDLPEVDLEELSKARKSLFDDEEDDDEAGLVDEELKDEFDLEQEYDYDEDEDNDAHPIFSDDDDEADLEELNAQNMEALSKKLDEEEAEEAEEAEMELVEAENMQPRADILPTEEQEEMMAQETPNLTSTRTRMIEIVKVLENFKTLGAEGRSRGEYVDRLLKDICEYFGYTPFLAEKLFNLFSPAEAMEFFEANEIARPITIRTNTLKTRRRDLAQTLVNRGVNLQPIGSWTKVGLQIFDSQVPIGATPEYLAGHYILQAASSFLPVIALDPHENERILDMAAAPGGKTTYISAMMKNTGCVFANDANKSRTKSLIANIHRLGCTNTIVCNYDAREFPKVIGGFDRILLDAPCSGTGVIGKDQSVKVSRTEKDFIQIPHLQKQLLLSAIDSVDCNSKHGGVIVYSTCSVAVEEDEAVIDYALRKRPNVKLVDTGLAIGKEAFTSYRGKKFHPSVKLARRYYPHTYNVDGFFVAKFQKIGPSSFDDNQASAKEKETAARKEALEEGIIHSDFATFEDEEDDKYIEKSVKNNLLKKGVNPKAKRPSNEK
B8: Rpc40 (protein, UniProt P07703 1-335)
chain: MSNIVGIEYNRVTNTTSTDFPGFSKDAENEWNVEKFKKDFEVNISSLDAREANFDLINIDTSIANAFRRIMISEVPSVAAEYVYFFNNTSVIQDEVLAHRIGLVPLKVDPDMLTWVDSNLPDDEKFTDENTIVLSLNVKCTRNPDAPKGSTDPKELYNNAHVYARDLKFEPQGRQSTTFADCPVVPADPDILLAKLRPGQEISLKAHCILGIGGDHAKFSPVSTASYRLLPQINILQPIKGESARRFQKCFPPGVIGIDEGSDEAYVKDARKDTVSREVLRYEEFADKVKLGRVRNHFIFNVESAGAMTPEEIFFKSVRILKNKAEYLKNCPITQ
B9: Mss116 (protein, UniProt P15424 27-664)
chain: NHITWAVSRRLYNDGNRDQRNFGRNQRNNNSNRYRNSRFNSRPRTRSREDDDEVHFDKTTFSKLIHVPKEDNSKEVTLDSLLEEGVLDKEIHKAITRMEFPGLTPVQQKTIKPILSSEDHDVIARAKTGTGKTFAFLIPIFQHLINTKFDSQYMVKAVIVAPTRDLALQIEAEVKKIHDMNYGLKKYACVSLVGGTDFRAAMNKMNKLRPNIVIATPGRLIDVLEKYSNKFFRFVDYKVLDEADRLLEIGFRDDLETISGILNEKNSKSADNIKTLLFSATLDDKVQKLANNIMNKKECLFLDTVDKNEPEAHERIDQSVVISEKFANSIFAAVEHIKKQIKERDSNYKAIIFAPTVKFTSFLCSILKNEFKKDLPILEFHGKITQNKRTSLVKRFKKDESGILVCTDVGARGMDFPNVHEVLQIGVPSELANYIHRIGRTARSGKEGSSVLFICKDELPFVRELEDAKNIVIAKQEKYEPSEEIKSEVLEAVTEEPEDISDIVISLISSYRSCIKEYRFSERRILPEIASTYGVLLNDPQLKIPVSRRFLDKLGLSRSPIGKAMFEIRDYSSRDGNNKSYDYDDDSEISFRGNKNYNNRSQNRDYDDEPFRRSNNNRRSFSRSNDKNNYSSRNSNIY
B10: Lsm8 (protein, UniProt P47093 1-109)
chain: MSATLKDYLNKRVVIIKVDGECLIASLNGFDKNTNLFITNVFNRISKEFICKAQLLRGSEIALVGLIDAENDDSLAPIDEKKVPMLKDTKNKIENEHVIWEKVYESKTK

These binders were tested against T1, Dhh1−GFP (S. cerevisiae (endogenous in BY4741-derived yeast)) (assay: affinity purification with mass spectrometry; Dhh1−GFP captured by anti-GFP IgG cross-linked to Protein-G Dynabeads from cleared lysate of cryo-ground yeast; RB buffer (30 mM K-Hepes pH 7.4, 150 mM KCl, 2 mM MgCl2, 0.2% NP-40, 0.1% Tween-20, 1 mM DTT, RNase inhibitor), 30 min at 4°; five purifications (two +glucose YPD, three 30 min −glucose YEP); hits filtered by SAINT against CRAPome controls).
In the case of B1, the binding is reported as “binds”.
In the case of B2, the binding is reported as “binds”.
B3 was tested, and the binding was “binds”.
B4 was tested, and the binding was “binds”.
B5 was tested, and the binding was “binds”.
With B6 the binding was “binds”.
B7 was tested, and the binding was “binds”.
B8 was tested, and the binding was “binds”.
B9 was tested, and the binding was “binds”.
With B10 the binding was “no binding”.

Results are given in words; binding and its absence hold for the method and conditions named. Binding seen in cells or lysates may run through a third protein. These calls come from enrichment with a bait or labelling near it, and not all partners need be listed. A no says only that the protein was not detected with the bait. Tags and fused reporters may be left off the sequences shown.
